# Measured values reported in PubChem BioAssay AID488837 (National Center for Advancing Translational Sciences (NCATS), 2010).
# Sequences of proteins named here, by UniProt entry; tags and fusion partners are left off. A change or cut given only in a name is not applied to a line headed by its entry.
# UniProt O00167: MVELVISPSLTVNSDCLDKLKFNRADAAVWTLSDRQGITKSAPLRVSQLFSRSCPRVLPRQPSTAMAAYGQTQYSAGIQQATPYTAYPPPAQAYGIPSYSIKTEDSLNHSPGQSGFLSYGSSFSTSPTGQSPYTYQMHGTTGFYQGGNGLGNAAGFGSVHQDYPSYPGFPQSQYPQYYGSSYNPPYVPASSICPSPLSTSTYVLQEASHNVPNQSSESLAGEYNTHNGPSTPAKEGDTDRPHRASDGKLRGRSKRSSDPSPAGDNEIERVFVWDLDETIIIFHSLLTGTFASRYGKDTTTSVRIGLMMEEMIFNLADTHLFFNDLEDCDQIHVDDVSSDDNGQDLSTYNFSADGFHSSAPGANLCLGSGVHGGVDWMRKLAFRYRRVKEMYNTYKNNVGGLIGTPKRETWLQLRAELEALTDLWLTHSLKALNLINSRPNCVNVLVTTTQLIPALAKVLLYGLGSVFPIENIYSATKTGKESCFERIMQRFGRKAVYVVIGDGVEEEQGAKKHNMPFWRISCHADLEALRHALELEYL
# Among all 330,000 compounds or so, about 20 (0.006%) were called active. The inconclusive results got no clear call from the source; some entries with a clear call stand among them for comparison. Calls come from the whole dose curve; as a rule, active = well fitted inhibition curve with a large enough effect; inconclusive = small, poorly fitted or top-dose-only effect, or effect the other way; inactive = flat fitted curve, though single readings scatter. Potencies of inconclusive entries are doubtful fits and often do not repeat.
# Biological target: Protein phosphatase EYA2 (Homo sapiens) (UniProt O00167)
# Assay: qHTS Assay for Inhibitors of the Phosphatase Activity of Eya2
# Details: recombinant Eya2, OMFP fluorescence dephosphorylation (OMFP is methylfluorescein phosphate); activity, negative = inhibition: at 76.9 µM (top of the series) unless noted
# Text: The Eya family of proteins are essential co-activators of the Six1 transcription factor. Six1 is a developmental gene that is abnormally re-expressed in a large percentage of breast cancers. This over-expression plays a causal role in the initiation and metastatic development of breast cancers. The Eya family of proteins was also found to contain a unique HAD phosphatase domain with protein tyrosine phosphatase activity which can potentially play a role in Six1-mediated breast tumorigenesis. […] We have developed and optimized a 1536 well fluorescence-based HTS assay targeting the phosphatase activity of Eya2. Inhibitors found against Eya2 could serve as potential therapeutic tools to inhibit Six1-mediated breast tumorigenesis and to increase the efficiency of radiation and certain chemo therapy. These inhibitors could also be used as chemical probes to study the function of Eya2's phosphatase activity and its role in Six1-mediated breast tumorigenesis.
# The Eya2 enzyme was kindly provided by the laboratory of Dr. Rui Zhao. The 3-O-methyl-fluorescein phosphate (OMFP) substrate and all buffer reagents were purchased from Sigma Aldrich. qHTS Assay Setup: 1. Buffer- 50 mM HEPES pH 7.5, 50 mM NaCl, 5 uM MgCl2, 0.05% BSA, 1 mM DTT. 2. OMFP Stock- 10 mM solution prepared in 100% DMSO and stored in single use aliquots at -20C. Assay Procedure- 1. Dispense 1.5 ul per well of Eya2 at 0.2 uM in black medium binding 1536 well Greiner plate 2. Transfer 23 nl of compound and control compound (EGTA) to plate 3. Incubate at ambient for 10 minutes 4. Dispense 1.5 ul per well of OMFP at 50 uM 5. Incubate at ambient for 10 minutes 6. Read on ViewLux using Excitation = 485 nm, Emission = 525 nm
# % is set by controls: 0 for no effect and ±100 for the full control effect; potency is the fitted concentration of half-maximal effect.
SMILES,Potency,"activity, negative = inhibition"
O=C(NC(=S)NCc1ccccc1)c1cccc([N+](=O)[O-])c1,"inconclusive: 20 µM [inhibitor, single point]",–
COc1cccc(OC)c1-c1nnc(-c2cn(C)c3ccccc23)o1,inactive,–
COc1ccc2c(c1)[C@H]1[C@H](CO2)[C@H](c2ccccc2)[C@]2(C)C(=O)Nc3ccc(F)cc3C(=O)N12,"inconclusive: 8.91 µM [inhibitor, partial curve, poor fit]",–
CC(C)=CCN1CCN(Cc2ccc3nsnc3c2)CC1CCO (stereo not drawn),"inconclusive: 20 µM [inhibitor, single point]",–
Cc1ccc2c(c1)N(C(=O)CCC(=O)NCCCN1CCN(C)CC1)CCO2,inactive,–
CN(C)S(=O)(=O)c1cc(NC(=O)c2cc(=O)[nH]c3ccccc23)ccc1Cl,"inconclusive: 200 µM [inhibitor, single point]",–
Cc1ccc(OCC(=O)N2c3ccccc3NC(=O)C2(C)C)c([N+](=O)[O-])n1,"inconclusive: 20 µM [inhibitor, partial curve, poor fit]",–
COc1cc(N(C(=O)Cc2cccs2)C(C(=O)NC2CCCCC2)c2ccc(C)cc2)ccc1-n1cnnn1 (stereo not drawn),inactive,–
Cn1c(SCC(=O)NC2CC2)nnc1-c1cccs1,inactive,–
CCOC(=O)C1CCCN(C(=O)c2[nH]c3ccc(OC)cc3c2C)C1 (stereo not drawn),"inconclusive: 31.6 µM [inhibitor, single point]",–
CCNC(=S)N/N=C(\C)c1cccc(OC)c1,"inconclusive: 28.2 µM [inhibitor, partial curve, poor fit]",–
CCOC(=O)c1cnn(-c2ccccc2)c1NC(=O)c1ccc(C)cc1,"inconclusive: 25.1 µM [inhibitor, single point]",–
CC(C)c1ccccc1OCC(O)CN1CCN(S(=O)(=O)c2ccc([N+](=O)[O-])cc2)CC1 (stereo not drawn),"inconclusive: 112 µM [inhibitor, partial curve]",–
COc1cc(OC)c(OC)cc1/C=N/Nc1nc2ccccc2[nH]1,"inconclusive: 70.8 µM [inhibitor, single point]",–
Cn1c(C(=O)O)c(CC(=O)Nc2ccc(F)cc2F)c2ccccc21,–,inactive: 2.04% [at 15.4 µM]
O=C(CSc1nnc(CNc2cccc(Cl)c2)o1)OC1CCCCC1,inactive,–
Cc1nc(SCC(=O)Nc2c(C)n(C)n(-c3ccccc3)c2=O)c(C#N)c(C)c1C,"inconclusive: 100 µM [inhibitor, single point]",–
CCN1C(=O)C(CC(=O)Nc2c(C)cccc2C)Nc2cc(S(=O)(=O)N(C)C)ccc21 (stereo not drawn),inactive,–
CCOc1ccc(C(C(=O)NC2CCCC2)N(C(=O)CNC(=O)c2ccco2)c2cccnc2)cc1 (stereo not drawn),"inconclusive: 15.8 µM [inhibitor, single point]",–
Cc1ccc([N+](=O)[O-])cc1NC(=O)C(C)Sc1nnc(C)n1CC1CCCO1 (stereo not drawn),inactive,–
COc1ccc2oc(-c3ccccc3)c(C(N)=O)c2c1,inactive,–
Cc1ccc(NS(=O)(=O)c2ccc(CCC(=O)NC3CC3)cc2)cc1,"inconclusive: 89.1 µM [inhibitor, single point]",–

SMILES,Potency,"activity, negative = inhibition"
COC(=O)c1ccc(Oc2cc(C)nc(-n3nc(C)cc3C)n2)cc1,"inconclusive: 22.4 µM [inhibitor, single point]",–
COc1cc(OC)c(-c2c3cc(O)c(=O)cc-3oc3cc(O)c(O)cc23)cc1OC,"inconclusive: 31.6 µM [activator, partial curve]",–
CC(NC(=O)Nc1cccc(F)c1)c1ccc2c(c1)OCO2 (stereo not drawn),inactive,–
COc1ccc(NC(=O)CCNS(=O)(=O)c2ccc(Br)s2)cc1,"inconclusive: 22.4 µM [inhibitor, single point]",–
Cc1c(C)n(C)c2ccc(C(=O)NCCCN3CCCCC3)cc12,"inconclusive: 79.4 µM [inhibitor, single point]",–
COc1ccc(NC(=O)CSC2=C(C#N)C(c3ccco3)C3=C(CCCC3=O)N2)c(OC)c1 (stereo not drawn),inactive,–
CC(/C=C1\N=C(SCc2ccccc2Cl)SC1=O)=C\c1ccccc1,"inconclusive: 25.1 µM [inhibitor, single point]",–
CCOC(=O)c1sc2nc(C)nc(NCc3ccc(Cl)cc3)c2c1C,"inconclusive: 100 µM [inhibitor, single point]",–
O=C(O)C1C2CCC(C2)C1C(=O)NCc1ccccn1 (stereo not drawn),"inconclusive: 224 µM [inhibitor, single point]",–
CO/N=C/c1cccn1-c1nccc(OC)c1C#N,"inconclusive: 22.4 µM [inhibitor, single point]",–
COc1ccc(CNCC(=O)Nc2cc(C)nn2-c2nc(C)cc(C)n2)cc1OC,"inconclusive: 28.2 µM [inhibitor, single point]",–
COc1ccc2oc(=O)c(N3C(=O)c4ccccc4C3=O)cc2c1,"inconclusive: 141 µM [inhibitor, partial curve, poor fit]",–
COc1ccc(C(=O)CCN2CCc3cc(OC)c(OC)cc3C2)cc1,"inconclusive: 79.4 µM [inhibitor, partial curve, poor fit]",–
O=C(NNC(=O)c1cccc2ccccc12)c1ccc2c(c1)OCO2,"inconclusive: 56.2 µM [inhibitor, partial curve, poor fit]",–
Cn1c(SCc2ccc(C(C)(C)C)cc2)nnc1C1COc2ccccc2O1 (stereo not drawn),"inconclusive: 89.1 µM [inhibitor, single point]",–
COC(=O)c1c(C)nc(C)c(C(=O)OC)c1-c1ccc(OC)cc1,"inconclusive: 100 µM [inhibitor, single point]",–
CCN1/C(=C\c2ccc3cc(C)ccc3[n+]2CC)Sc2cc(C)c(C)cc21,–,inconclusive: 72.4% [activator]
CCCCCC(=O)Nc1cccc(-c2nc3ncccc3o2)c1,"inconclusive: 20 µM [inhibitor, single point]",–
Oc1ccc(C(c2nnnn2C2CCCCC2)N2CCOCC2)cc1 (stereo not drawn),inactive,–
O=C(Cc1ccc(Cl)cc1Cl)NC1CCCCCC1,"inconclusive: 20 µM [inhibitor, single point]",–
COc1ccc(C(Nc2cc(C)ccn2)c2ccc3ccc(C)nc3c2O)cc1 (stereo not drawn),inactive,–

# An excerpt from further up, as a working copy:
SMILES,Potency,"activity, negative = inhibition"
Cn1c(SCc2ccc(C(C)(C)C)cc2)nnc1C1COc2ccccc2O1 (stereo not drawn),"inconclusive: 89.1 µM [inhibitor, single point]",–
COC(=O)c1c(C)nc(C)c(C(=O)OC)c1-c1ccc(OC)cc1,"inconclusive: 100 µM [inhibitor, single point]",–
CCN1/C(=C\c2ccc3cc(C)ccc3[n+]2CC)Sc2cc(C)c(C)cc21,–,inconclusive: 72.4% [activator]
CCCCCC(=O)Nc1cccc(-c2nc3ncccc3o2)c1,"inconclusive: 20 µM [inhibitor, single point]",–
